Experimental data taken from patent US6428529B1, “Epidural administration of therapeutic compounds with sustained rate of release” (SkyePharma Inc., priority 1995, dated 2002).

Experiment: Pharmacokinetics: morphine concentrations in CSF and serum by RIA after single epidural dose

CN1CC[C@]23c4c5ccc(O)c4O[C@H]2[C@@H](O)C=C[C@H]3[C@H]1C5.O=S(=O)(O)O [MS, morphine sulfate]
Cmax (Sprague-Dawley, rat, serum, 250 ug): 1460 ± 97 ng/mL
AUC, CSF (rats, 250-μg epidural injection, CSF): 432 ng·days/mL
Cmax, CSF (rats, 250-μg epidural injection, cisternal CSF): 6060 ± 3590 ng/mL
AUC, Serum (rats, 250-μg epidural injection, serum): 58 ng·days/mL
